Reference: patent US20120171226A1
Results are given in words; binding and its absence hold for the method and conditions named. Some results given as binding are weak or reduced against the parent protein; the word gives no strength.

By UniProt entry, the sequences of proteins in these tests, tags left out. Residues count along the entry.
UniProt Q6UVK1, residues 30-2322: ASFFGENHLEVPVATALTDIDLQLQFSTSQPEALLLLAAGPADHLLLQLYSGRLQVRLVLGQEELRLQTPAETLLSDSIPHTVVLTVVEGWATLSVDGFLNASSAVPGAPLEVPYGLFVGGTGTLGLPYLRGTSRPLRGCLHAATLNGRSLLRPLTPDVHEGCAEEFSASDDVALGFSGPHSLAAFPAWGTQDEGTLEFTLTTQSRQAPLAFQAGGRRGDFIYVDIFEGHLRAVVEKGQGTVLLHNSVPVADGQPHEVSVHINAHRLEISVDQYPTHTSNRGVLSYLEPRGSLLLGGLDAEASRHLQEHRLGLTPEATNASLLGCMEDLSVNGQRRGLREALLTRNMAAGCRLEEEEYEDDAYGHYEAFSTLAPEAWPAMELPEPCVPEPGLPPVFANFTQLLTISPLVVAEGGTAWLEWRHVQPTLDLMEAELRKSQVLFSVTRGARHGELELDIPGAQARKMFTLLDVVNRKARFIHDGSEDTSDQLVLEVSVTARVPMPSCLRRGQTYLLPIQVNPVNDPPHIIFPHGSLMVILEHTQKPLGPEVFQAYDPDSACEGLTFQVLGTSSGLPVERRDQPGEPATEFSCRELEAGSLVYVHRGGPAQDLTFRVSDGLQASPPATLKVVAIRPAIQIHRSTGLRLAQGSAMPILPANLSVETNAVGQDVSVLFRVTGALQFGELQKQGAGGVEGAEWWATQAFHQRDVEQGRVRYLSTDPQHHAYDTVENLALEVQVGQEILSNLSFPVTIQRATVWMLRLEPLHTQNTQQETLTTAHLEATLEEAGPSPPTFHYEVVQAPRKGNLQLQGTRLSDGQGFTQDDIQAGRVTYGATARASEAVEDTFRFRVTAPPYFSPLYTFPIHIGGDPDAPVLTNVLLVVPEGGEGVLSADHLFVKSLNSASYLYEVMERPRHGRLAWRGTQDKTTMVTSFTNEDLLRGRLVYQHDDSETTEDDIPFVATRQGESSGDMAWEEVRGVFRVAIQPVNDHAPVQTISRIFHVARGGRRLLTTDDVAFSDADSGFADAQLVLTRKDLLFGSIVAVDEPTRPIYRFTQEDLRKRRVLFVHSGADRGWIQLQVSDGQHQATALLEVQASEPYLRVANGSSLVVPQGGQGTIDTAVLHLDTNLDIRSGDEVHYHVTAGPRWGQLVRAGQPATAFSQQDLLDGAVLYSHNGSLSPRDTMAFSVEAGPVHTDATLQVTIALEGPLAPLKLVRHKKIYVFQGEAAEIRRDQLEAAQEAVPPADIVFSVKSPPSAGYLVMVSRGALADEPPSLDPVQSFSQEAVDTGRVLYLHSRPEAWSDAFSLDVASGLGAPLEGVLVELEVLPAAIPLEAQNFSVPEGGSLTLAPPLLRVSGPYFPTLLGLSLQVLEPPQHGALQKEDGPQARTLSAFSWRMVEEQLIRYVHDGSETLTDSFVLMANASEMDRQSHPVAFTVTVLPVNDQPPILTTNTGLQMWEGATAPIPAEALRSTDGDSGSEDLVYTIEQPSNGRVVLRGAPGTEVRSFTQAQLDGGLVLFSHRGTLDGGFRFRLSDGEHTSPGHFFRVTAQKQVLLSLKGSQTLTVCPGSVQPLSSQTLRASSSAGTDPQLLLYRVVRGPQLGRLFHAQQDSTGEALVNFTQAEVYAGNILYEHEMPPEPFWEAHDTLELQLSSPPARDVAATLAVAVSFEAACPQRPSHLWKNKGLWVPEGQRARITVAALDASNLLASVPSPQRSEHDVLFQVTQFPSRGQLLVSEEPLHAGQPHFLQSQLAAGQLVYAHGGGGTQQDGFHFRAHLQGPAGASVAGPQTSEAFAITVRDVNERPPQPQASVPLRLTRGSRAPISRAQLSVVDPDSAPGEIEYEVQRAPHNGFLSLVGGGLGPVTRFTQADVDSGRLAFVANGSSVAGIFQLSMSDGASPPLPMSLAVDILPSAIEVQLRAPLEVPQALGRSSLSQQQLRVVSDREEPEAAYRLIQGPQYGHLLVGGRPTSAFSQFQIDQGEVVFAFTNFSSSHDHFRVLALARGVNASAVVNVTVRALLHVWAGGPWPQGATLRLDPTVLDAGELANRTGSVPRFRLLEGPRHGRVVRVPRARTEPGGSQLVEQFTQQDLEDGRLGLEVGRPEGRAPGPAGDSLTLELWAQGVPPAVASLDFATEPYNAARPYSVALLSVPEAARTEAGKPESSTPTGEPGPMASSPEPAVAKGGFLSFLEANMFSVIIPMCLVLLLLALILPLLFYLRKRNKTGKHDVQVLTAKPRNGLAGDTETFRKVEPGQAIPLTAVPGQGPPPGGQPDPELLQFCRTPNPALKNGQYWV

Target: high molecular weight melanoma associated antigen (HMW-MAA) (human) (UniProt Q6UVK1)
Test: competition binding on Minor melanoma cells; competitor biotinylated murine IND-2 IgG

B1: chimeric IND-2 Fab (Fab, V domains shown)
VH: QIQLVQSGPELKKPGETVKISCKASGYTFTDYSMHWVKKTPGKGLKWLGWINTATGEPTYADDFKGRFAISLETSARTVYLQINNLRNEDTATYFCFSYYDYWGQGTTLTVSS
VL: DILLTQSPAILSVTPGETVSLSCRASQTIYKNLHWYQQKSHRSPRLLIKYGSDSISGIPSRFTGSGSGTDYTLNINSVKPEDEGIYYCLQGYSTPWTFGGGTKLEIKR
With B1 the binding was “binds”.
